{"source": "PubChem BioAssay AID652243, Drosophila RNAi Screening Center – 2013", "assay": "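Fly regulators of androgen-dependent reporter output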 (primary screen)", "cells": "Drosophila S2R+ cells", "knock-down reagent": "long dsRNA against Drosophila genes", "time to read-out": "72 h (48 h, then 24 h hormone)", "treatment": "synthetic androgen R1881 at 10 nM for 24 h", "read-out": "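Per-well raw luminescence of the androgen-driven firefly reporter and of the Renilla control, two replicates each, without normalisation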", "reading the numbers": "firefly reporter light: higher = more light from androgen-responsive reporter; Renilla control light: higher = more constitutive control signal (cell number, transfection)", "rule for the call": "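Across duplicate plates, a knock-down whose log firefly/Renilla ratio shifted a set fold down or up from the GFP/LacZ control mean was a hit; the downward cut appears as both 1.5 and 3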", "calls": "active = hit: reporter lowered or raised; inactive = no hit", "note": "In all, the deposit lists about 24,000 reagents; this is a random part of those with a known target gene and a result. Of all reagents, 246 (1%) got an active call. 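Plates not normalised; calls are printed but the firefly/Renilla ratio behind them is not deposited; fold cut for lowering reported inconsistently.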 The raw values are shown without normalisation. A number with no mark means an inactive call. No sequences are given here. Not stated in the record: the amount of reagent."}
{"gene": "CG3492", "amplicon": "DRSC04373", "firefly reporter light, replicate 1": 4.25e5, "firefly reporter light, replicate 2": 6.28e5, "Renilla control light, replicate 1": 1.38e6, "Renilla control light, replicate 2": 1.66e6}
{"gene": "Or85b (Odorant receptor 85b)", "amplicon": "DRSC16765", "firefly reporter light, replicate 1": 84715, "firefly reporter light, replicate 2": 1.14e5, "Renilla control light, replicate 1": 1.64e6, "Renilla control light, replicate 2": 2.54e6}
{"gene": "Lasp", "amplicon": "DRSC10379", "firefly reporter light, replicate 1": 2.53e5, "firefly reporter light, replicate 2": 1.47e5, "Renilla control light, replicate 1": 1.45e6, "Renilla control light, replicate 2": 1.02e6}
{"gene": "Lasp", "amplicon": "DRSC23555", "firefly reporter light, replicate 1": 3.09e5, "firefly reporter light, replicate 2": 3.22e5, "Renilla control light, replicate 1": 4.51e5, "Renilla control light, replicate 2": 5.06e5}
{"gene": "CG5934", "amplicon": "DRSC15922", "firefly reporter light, replicate 1": 1.73e5, "firefly reporter light, replicate 2": 2.00e5, "Renilla control light, replicate 1": 1.91e6, "Renilla control light, replicate 2": 2.89e6}
{"gene": "CG5934", "amplicon": "DRSC27431", "firefly reporter light, replicate 1": 3.09e5, "firefly reporter light, replicate 2": 3.07e5, "Renilla control light, replicate 1": 7.84e5, "Renilla control light, replicate 2": 7.27e5}
{"gene": "beg (bad egg)", "amplicon": "DRSC10923", "firefly reporter light, replicate 1": 26956, "firefly reporter light, replicate 2": 40022, "Renilla control light, replicate 1": 6.44e5, "Renilla control light, replicate 2": 5.09e5}
{"gene": "Daao2 (D-amino acid oxidase 2)", "amplicon": "DRSC02135", "firefly reporter light, replicate 1": 8.69e5, "firefly reporter light, replicate 2": 7.53e5, "Renilla control light, replicate 1": 1.96e6, "Renilla control light, replicate 2": 1.78e6}
{"gene": "CG11068", "amplicon": "DRSC19369", "firefly reporter light, replicate 1": 3.97e5, "firefly reporter light, replicate 2": 2.25e5, "Renilla control light, replicate 1": 3.20e6, "Renilla control light, replicate 2": 3.43e6}
{"gene": "CG13670", "amplicon": "DRSC10029", "firefly reporter light, replicate 1": 1.82e5, "firefly reporter light, replicate 2": 2.04e5, "Renilla control light, replicate 1": 2.53e6, "Renilla control light, replicate 2": 2.27e6}
{"gene": "CG13670", "amplicon": "DRSC26092", "firefly reporter light, replicate 1": 3.60e5, "firefly reporter light, replicate 2": 4.05e5, "Renilla control light, replicate 1": 8.04e5, "Renilla control light, replicate 2": 6.81e5}
{"gene": "CG15356", "amplicon": "DRSC00386", "firefly reporter light, replicate 1": 79996, "firefly reporter light, replicate 2": 1.21e5, "Renilla control light, replicate 1": 5.07e5, "Renilla control light, replicate 2": 7.16e5}
{"gene": "CG8834", "amplicon": "DRSC07283", "firefly reporter light, replicate 1": 2.26e5, "firefly reporter light, replicate 2": 1.46e5, "Renilla control light, replicate 1": 1.97e6, "Renilla control light, replicate 2": 1.55e6}
{"gene": "CG15263", "amplicon": "DRSC01974", "firefly reporter light, replicate 1": 6.88e5, "firefly reporter light, replicate 2": 8.49e5, "Renilla control light, replicate 1": 1.83e6, "Renilla control light, replicate 2": 1.82e6}
{"gene": "CG15263", "amplicon": "DRSC27309", "firefly reporter light, replicate 1": 2.72e5, "firefly reporter light, replicate 2": 2.43e5, "Renilla control light, replicate 1": 6.37e5, "Renilla control light, replicate 2": 5.76e5}
